Assay results from the supplement of paper PMC3334620.
The full ranking holds about 33,000 sequences; the median of “E-score (-0.5 to 0.5)” is about -8e-05, and the highest 2% start at about 0.23. The list shows a part of the results.

biological target: T1, Nrg2 (UniProt P38082); experiment: PBM E-score (8-mer binding enrichment) (E-score (-0.5 to 0.5)); higher = stronger / more preferred TF binding; details: protein concentration: 100 nM; construct: GST-full length
T1 sequence: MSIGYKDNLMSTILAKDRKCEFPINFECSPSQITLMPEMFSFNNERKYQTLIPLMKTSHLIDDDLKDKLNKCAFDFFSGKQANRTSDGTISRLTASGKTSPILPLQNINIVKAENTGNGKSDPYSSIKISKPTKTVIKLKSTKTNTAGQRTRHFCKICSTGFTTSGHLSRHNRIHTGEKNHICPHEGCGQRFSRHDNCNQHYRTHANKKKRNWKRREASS
Experimental: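 Universal 'all 10-mer' protein binding microarrays (Agilent AMADID 015681) probed with GST-tagged S. cerevisiae TFs (full-length or DBD) made by in vitro transcription/translation (PURExpress), about 100-200 nM. Bound TF was detected with fluorescent anti-GST. Each ungapped 8-mer (which stands for itself and its reverse complement) is scored by the PBM enrichment score (E-score), a modified Wilcoxon-Mann-Whitney statistic from -0.5 to +0.5, computed with the Universal PBM Analysis Suite. Scale: above 0.35 generally sequence-specific binding.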

Sequence	PBM E-score
CACAATGA	0.115
CCCTCTAG	-0.23
AGTCGGGA	-0.164
AACCCGGC	-0.134
GACTGCGC	-0.0716
TAGGGGCA	0.0207
CATACTCA	-0.00405
GCTCTTCA	-0.086
CGGATGAA	0.199
CTTTAAAC	-0.065
CGCCACAC	-0.00344
ACCTCGTA	0.0407
ATAAAACA	-0.0258
CCATAGCA	-0.00563
ACAGTAAC	0.0682
CCCCTAGC	-0.151
GGCACGCA	-0.133
CACTGCTA	0.0106
ACGCGGGG	0.221
CGTCCGAG	0.0587
AACTAGTG	0.0803
AGACCTAG	-0.0422

Sequence	PBM E-score
AGTCGGGG	-0.179
CAATCCTA	-0.0876
ATAGGCGA	0.0499
GGCTGACC	-0.207
CGTTAGTA	0.0257
CGGTCTAC	-0.0553
AACAATCG	-0.0412
GATAACCA	0.175
TCGGAGAA	-0.0962
CCTTAAGC	-0.0539
ACTGGGGC	0.0524
CGACGAGC	0.0201
TCGAGCAA	0.183
AGGACATG	-0.0709
CGGACTTA	-0.245
GCAGGCGA	-0.0348
GACAGGTC	-0.146
TAAATAAA	0.086
CAGCGTTA	-0.0615
ACTAAGTA	0.0864
AGGTATGC	0.06
CCGGCCAC	-0.118

Sequence	PBM E-score
AAGGGCGC	0.126
CATCTACC	0.0527
AACACGGA	0.0856
ATAGTGCG	0.129
CAAAAATG	0.0482
AAAGGTTG	-0.174
CCTGACGC	-0.159
AGGACAGG	-0.0875
CTATTTGA	0.098
AACTAGGA	-0.0947
CCCACCCA	0.0597
TAATGTCA	0.0244
GAAGATAC	0.00975
AGTATTAT	0.00126
GCTAGGCC	-0.00927
AACTATGG	-0.144
AGAACTTC	-0.116
ACCAGAGA	0.118
CAGCTGGA	0.123
ACTGGACG	-0.0178
GTTAACGA	0.124
GGCGAATA	0.14

Some of the entries above, reformatted.
Sequence,PBM E-score
CATCTACC,0.0527
ATAGTGCG,0.129
CAAAAATG,0.0482
ACTGGACG,-0.0178
GTTAACGA,0.124

The list continues:

Sequence	PBM E-score
GCACTAAA	0.0452
GGAGTCAA	-0.184
AGATTGTC	-0.0618
TATGTCGA	0.158
CTCGTTAC	-0.0407
AAATACGT	0.0164
CTCTGCGA	0.0307
CTTGTCTA	0.0485
AACGAACG	0.0842
CCGACCCC	-0.283
AAGGCTCC	-0.322
AGACGCTC	-0.0581
AGATCCCA	0.0914
CTATCACC	-0.145
CTTTACAA	-0.0393
CTTCTTGA	-0.0331
CACCAATC	0.00066
CTGGCAGA	-0.066
ACGAGTCT	-0.122
CTACGTCA	-0.247
CACGTTAG	-0.178
GGCGTTAA	-0.301

Sequence	PBM E-score
ACAGCGGT	-0.0999
GTCAACTA	0.18
ATCACGGA	0.0273
ACAGAGCC	-0.0203
CCGTGTCG	-0.0952
CATCGAAA	0.0505
ACTCGATA	0.0203
AATGTCGG	-0.077
AATACGCG	0.142
CCCCTATA	-0.0914
TATCATCA	0.0106
GAATCAGC	0.0861
CATGTCAA	-0.0797
AGTTAACT	0.046
ATATTGGG	0.0515
CCAAAGCG	-0.124
AATGACCC	-0.0422
ACAGGGTG	0.0367
CCCTATTA	0.139
ATCTCAAC	0.158
AGAGCGCG	0.0781
CAGGCCAA	-0.0623
